PMC10011557

Biological target: Flag-tagged AMPKα2
Assay: affinity purification with mass spectrometry; Flag-AMPKα2 expressed in 293T; glucose deprived 6 h, glucose added back 1 h; lysis in 150 mM KCl, 0.2% NP-40, 10% glycerol, 20 mM Tris pH 7.5, 0.5 mM DTT; anti-Flag beads overnight, eluted with Flag peptide, SDS-PAGE, mass spectrometry

Binder | binding
ubiquitin-conjugating enzyme E2 O (UBE2O) (enzyme, UniProt Q9C0C9 1-1292) MADPAAPTPAAPAPAQAPAPAPEAVPAPAAAPVPAPAPASDSASGPSSDSGPEAGSQRLLFSHDLVSGRYRGSVHFGLVRLIHGEDSDSEGEEEGRGSSGCSEAGGAGHEEGRASPLRRGYVRVQWYPEGVKQHVKETKLKLEDRSVVPRDVVRHMRSTDSQCGTVIDVNIDCAVKLIGTNCIIYPVNSKDLQHIWPFMYGDYIAYDCWLGKVYDLKNQIILKLSNGARCSMNTEDGAKLYDVCPHVSDSGLFFDDSYGFYPGQVLIGPAKIFSSVQWLSGVKPVLSTKSKFRVVVEEVQVVELKVTWITKSFCPGGTDSVSPPPSVITQENLGRVKRLGCFDHAQRQLGERCLYVFPAKVEPAKIAWECPEKNCAQGEGSMAKKVKRLLKKQVVRIMSCSPDTQCSRDHSMEDPDKKGESKTKSEAESASPEETPDGSASPVEMQDEGAEEPHEAGEQLPPFLLKEGRDDRLHSAEQDADDEAADDTDDTSSVTSSASSTTSSQSGSGTSRKKSIPLSIKNLKRKHKRKKNKITRDFKPGDRVAVEVVTTMTSADVMWQDGSVECNIRSNDLFPVHHLDNNEFCPGDFVVDKRVQSCPDPAVYGVVQSGDHIGRTCMVKWFKLRPSGDDVELIGEEEDVSVYDIADHPDFRFRTTDIVIRIGNTEDGAPHKEDEPSVGQVARVDVSSKVEVVWADNSKTIILPQHLYNIESEIEESDYDSVEGSTSGASSDEWEDDSDSWETDNGLVEDEHPKIEEPPIPPLEQPVAPEDKGVVISEEAATAAVQGAVAMAAPMAGLMEKAGKDGPPKSFRELKEAIKILESLKNMTVEQLLTGSPTSPTVEPEKPTREKKFLDDIKKLQENLKKTLDNVAIVEEEKMEAVPDVERKEDKPEGQSPVKAEWPSETPVLCQQCGGKPGVTFTSAKGEVFSVLEFAPSNHSFKKIEFQPPEAKKFFSTVRKEMALLATSLPEGIMVKTFEDRMDLFSALIKGPTRTPYEDGLYLFDIQLPNIYPAVPPHFCYLSQCSGRLNPNLYDNGKVCVSLLGTWIGKGTERWTSKSSLLQVLISIQGLILVNEPYYNEAGFDSDRGLQEGYENSRCYNEMALIRVVQSMTQLVRRPPEVFEQEIRQHFSTGGWRLVNRIESWLETHALLEKAQALPNGVPKASSSPEPPAVAELSDSGQQEPEDGGPAPGEASQGSDSEGGAQGLASASRDHTDQTSETAPDASVPPSVKPKKRRKSYRSFLPEKSGYPDIGFPLFPLSKGFIKSIRGVLTQFRAALLEAGMPECTEDK | binds
cell division cycle 37 (CDC37) (protein, UniProt Q16543 1-378) MVDYSVWDHIEVSDDEDETHPNIDTASLFRWRHQARVERMEQFQKEKEELDRGCRECKRKVAECQRKLKELEVAEGGKAELERLQAEAQQLRKEERSWEQKLEEMRKKEKSMPWNVDTLSKDGFSKSMVNTKPEKTEEDSEEVREQKHKTFVEKYEKQIKHFGMLRRWDDSQKYLSDNVHLVCEETANYLVIWCIDLEVEEKCALMEQVAHQTIVMQFILELAKSLKVDPRACFRQFFTKIKTADRQYMEGFNDELEAFKERVRGRAKLRIEKAMKEYEEEERKKRLGPGGLDPVEVYESLPEELQKCFDVKDVQMLQDAISKMDPTDAKYHMQRCIDSGLWVPNSKASEAKEGEEAGPGDPLLEAVPKTGDEKDVSV | binds

More lines, now with the values ahead:

binding | Binder
binds | serine/threonine-protein phosphatase 6 regulatory subunit 3, SAPS3 (endogenous, 293T) (protein, UniProt Q5H9R7 1-873) MFWKFDLHSSSHIDTLLEREDVTLKELMDEEDVLQECKAQNRKLIEFLLKAECLEDLVSFIIEEPPQDMDEKIRYKYPNISCELLTSDVSQMNDRLGEDESLLMKLYSFLLNDSPLNPLLASFFSKVLSILISRKPEQIVDFLKKKHDFVDLIIKHIGTSAIMDLLLRLLTCIEPPQPRQDVLNWLNEEKIIQRLVEIVHPSQEEDRHSNASQSLCEIVRLSRDQMLQIQNSTEPDPLLATLEKQEIIEQLLSNIFHKEKNESAIVSAIQILLTLLETRRPTFEGHIEICPPGMSHSACSVNKSVLEAIRGRLGSFHELLLEPPKKSVMKTTWGVLDPPVGNTRLNVIRLISSLLQTNTSSINGDLMELNSIGVILNMFFKYTWNNFLHTQVEICIALILASPFENTENATITDQDSTGDNLLLKHLFQKCQLIERILEAWEMNEKKQAEGGRRHGYMGHLTRIANCIVHSTDKGPNSALVQQLIKDLPDEVRERWETFCTSSLGETNKRNTVDLVTTCHIHSSSDDEIDFKETGFSQDSSLQQAFSDYQMQQMTSNFIDQFGFNDEKFADQDDIGNVSFDRVSDINFTLNTNESGNIALFEACCKERIQQFDDGGSDEEDIWEEKHIAFTPESQRRSSSGSTDSEESTDSEEEDGAKQDLFEPSSANTEDKMEVDLSEPPNWSANFDVPMETTHGAPLDSVGSDVWSTEEPMPTKETGWASFSEFTSSLSTKDSLRSNSPVEMETSTEPMDPLTPSAAALAVQPEAAGSVAMEASSDGEEDAESTDKVTETVMNGGMKETLSLTVDAKTETAVFKSEEGKLSTSQDAACKDAEECPETAEAKCAAPRPPSSSPEQRTGQPSAPGDTSVNGPV
binds | ankyrin repeat domain 28 (ANKRD28), scaffolding subunit of PP6 (protein, UniProt O15084 1-1053) MAFLKLRDQPSLVQAIFNGDPDEVRALIFKKEDVNFQDNEKRTPLHAAAYLGDAEIIELLILSGARVNAKDSKWLTPLHRAVASCSEEAVQVLLKHSADVNARDKNWQTPLHIAAANKAVKCAEALVPLLSNVNVSDRAGRTALHHAAFSGHGEMVKLLLSRGANINAFDKKDRRAIHWAAYMGHIEVVKLLVSHGAEVTCKDKKSYTPLHAAASSGMISVVKYLLDLGVDMNEPNAYGNTPLHVACYNGQDVVVNELIDCGAIVNQKNEKGFTPLHFAAASTHGALCLELLVGNGADVNMKSKDGKTPLHMTALHGRFSRSQTIIQSGAVIDCEDKNGNTPLHIAARYGHELLINTLITSGADTAKRGIHGMFPLHLAALSGFSDCCRKLLSSGFDIDTPDDFGRTCLHAAAAGGNLECLNLLLNTGADFNKKDKFGRSPLHYAAANCNYQCLFALVGSGASVNDLDERGCTPLHYAATSDTDGKCLEYLLRNDANPGIRDKQGYNAVHYSAAYGHRLCLQLIASETPLDVLMETSGTDMLSDSDNRATISPLHLAAYHGHHQALEVLVQSLLDLDVRNSSGRTPLDLAAFKGHVECVDVLINQGASILVKDYILKRTPIHAAATNGHSECLRLLIGNAEPQNAVDIQDGNGQTPLMLSVLNGHTDCVYSLLNKGANVDAKDKWGRTALHRGAVTGHEECVDALLQHGAKCLLRDSRGRTPIHLSAACGHIGVLGALLQSAASMDANPATADNHGYTALHWACYNGHETCVELLLEQEVFQKTEGNAFSPLHCAVINDNEGAAEMLIDTLGASIVNATDSKGRTPLHAAAFTDHVECLQLLLSHNAQVNSVDSTGKTPLMMAAENGQTNTVEMLVSSASAELTLQDNSKNTALHLACSKGHETSALLILEKITDRNLINATNAALQTPLHVAARNGLTMVVQELLGKGASVLAVDENGYTPALACAPNKDVADCLALILATMMPVSSSSPLSSLTFNAINRYTNTSKTVSFEALPIMRNEPSSYCSFNNIGGEQEYLYTDVDELNDSDSETY

Results are given in words; binding and its absence hold for the method and conditions named. Binding seen in cells or lysates may run through a third protein. Here binding means that the protein was enriched with, or labelled near, the bait; the list need not be complete.
